These are yes or no findings as the source states them, for the method shown. For some of these results: Binding seen in cells or lysates may run through a third protein. Some results given as binding are weak or reduced against the parent protein; the word gives no strength.
Assays:
[1] = biological target: Rhodopsin (endogenous in mouse retina) (mouse (endogenous in retina)) (UniProt P15409); test: far-Western, overlay or dot blot
[2] = biological target: Rhodopsin overexpressed in HEK293 cells (pcDNA3 rod opsin construct) (UniProt P08100); test: far-Western, overlay or dot blot
[3] = biological target: Rhodopsin (endogenous in mouse retina) (mouse (endogenous in retina)) (UniProt P15409); test: co-IP

The chains behind the UniProt entries cited, without tags or fusion partners.
UniProt P15409: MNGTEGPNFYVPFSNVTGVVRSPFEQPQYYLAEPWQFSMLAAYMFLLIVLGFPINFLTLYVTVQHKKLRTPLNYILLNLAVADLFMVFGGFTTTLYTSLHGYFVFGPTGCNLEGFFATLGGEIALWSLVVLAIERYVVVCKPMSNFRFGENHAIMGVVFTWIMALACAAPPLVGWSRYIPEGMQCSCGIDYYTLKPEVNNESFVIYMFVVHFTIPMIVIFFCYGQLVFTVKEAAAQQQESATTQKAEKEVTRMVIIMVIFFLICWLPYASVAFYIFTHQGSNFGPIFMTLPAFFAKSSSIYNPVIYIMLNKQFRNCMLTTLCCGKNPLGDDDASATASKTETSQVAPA
UniProt P08100: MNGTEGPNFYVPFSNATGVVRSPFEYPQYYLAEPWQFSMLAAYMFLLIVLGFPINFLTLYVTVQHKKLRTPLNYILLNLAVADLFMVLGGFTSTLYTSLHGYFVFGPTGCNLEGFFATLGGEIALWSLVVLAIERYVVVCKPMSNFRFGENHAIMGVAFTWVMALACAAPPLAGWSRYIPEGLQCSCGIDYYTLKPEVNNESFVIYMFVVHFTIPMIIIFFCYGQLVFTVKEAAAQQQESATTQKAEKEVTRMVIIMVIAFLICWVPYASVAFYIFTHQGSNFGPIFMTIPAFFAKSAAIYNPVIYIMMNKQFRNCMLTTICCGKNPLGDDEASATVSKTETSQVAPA

binding [1]	binding [2]	binding [3]	Molecule
binds	binds	–	Purified recombinant full-length mouse MYO1C (from UniProt Q9WTI7 1-1063)
–	–	binds	MYO1C (unconventional myosin, endogenous in mouse retina) (from UniProt Q9WTI7 1-1063)
–	binds	–	GFP-MYO1C-790-1028 (MYO1C tail domain, also known as the cargo domain) (domain or fragment, mouse, UniProt Q9WTI7-2 790-1028, looked up) PRNVLDTSWPTPPPALREASELLRELCMKNMVWKYCRSISPEWKQQLQQKAVASEIFKGKKDNYPQSVPRLFISTRLGTEEISPRVLQSLGSEPIQYAVPVVKYDRKGYKPRPRQLLLTPSAVVIVEDAKVKQRIDYANLTGISVSSLSDSLFVLHVQREDNKQKGDVVLQSDHVIETLTKTALSADRVNNININQGSITFAGGPGRDGIIDFTSGSELLITKAKNGHLAVVAPRLNSR

— paper doi:10.1101/2020.06.02.129890 (bioRxiv, 2020)
